Laboratory results as given in patent US10413505B1, “Pharmaceutical compositions and methods of using the same” (priority 2017, dated 2019).
Some entries share one result that the patent states for a list of compounds. At least one structure is not confirmed: it was looked up by name or label, or the drawing left a doubt.

Assays:
[1] = Example 3 urinary pharmacokinetics, normal hepatic function vs hepatic impairment; format: in vivo, human
[2] = Example 3 plasma pharmacokinetics, normal hepatic function vs hepatic impairment; settings: Grade B hepatic impairment

## CN1[C@H]2CC[C@@H]1[C@@H](C(=O)O)[C@@H](OC(=O)c1ccccc1)C2 [BE, benzoylecgonine]
[1]
  renal clearance, percent lower than normal: less than 40%
[2]
  geometric mean Cmax, times (fold) higher than normal: less than 2 times
